Measured values from US11279735B2 (priority 2017, dated 2022).

Test: general procedure: Fmoc solid-phase peptide synthesis; 2-chlorotrityl chloride resin (loading 0.956 mmol/g) or 2-chlorotrityl resin preloaded with glycine (0.536 mmol/g); HOBt couplings; HBTU/DIPEA; triphosgene/2,4,6-trimethylpyridine for the beta-hyd
Conditions: TFA salt; for step yield: late stage modification step; for cyclisation yield: cyclisation step

| Substance | step yield | further results |
| --- | --- | --- |
| N-(((6S,9S,12S,15S,18R,19R)-9-(Aminomethyl)-12-cyclohexyl-19-hexyl-15-isobutyl-16,18-dimethyl-2,5,8,11,14,17-hexaoxo-1-oxa-4,7,10,13,16-pentaazacyclononadecan-6-yl)methyl)azetidine-3-carboxamide | 16% yield |  |
| (6S,9S,12S,15S,18R,19R)-12-((R)-sec-Butyl)-18-ethyl-9-heptyl-6-((S)-1-hydroxyethyl)-9-(hydroxymethyl)-15-isobutyl-16-methyl-1-oxa-4,7,10,13,16-pentaazacyclononadecane-2,5,8,11,14,17-hexaone | 5.2% yield |  |
| (3R,6S,9S,12S,15S,18R,19R)-9-(Aminomethyl)-12-cyclohexyl-19-hexyl-6-((S)-1-hydroxyethyl)-15-isobutyl-3,16,18-trimethyl-1-oxa-4,7,10,13,16-pentaazacyclononadecane-5,8,11,14,17-pentaone | 10% yield |  |
| tert-Butyl N-[[(3R,6S,9S,12S,15S,18R,19R)-6-[[2-[tert-butyl(dimethyl)silyl]oxyethylamino]methyl]-12-cycloheptyl-19-hexyl-15-isobutyl-3,16,18-trimethyl-5,8,11,14,17-pentaoxo-1-oxa-4,7,10,13,16-pentazacyclononadec-9-yl]methyl]carbamate | 41.6% yield |  |
| (3R,6S,9S,12S,15S,18R,19R)-9-(Aminomethyl)-18,19-dibutyl-12-cyclohexyl-6-((S)-1-hydroxyethyl)-3,16-dimethyl-15-propyl-1-oxa-4,7,10,13,16-pentaazacyclononadecane-5,8,11,14,17-pentaone | 5% yield |  |
| (3R,6S,9S,12S,15S,18R,19R)-9-(Aminomethyl)-12-cyclohexyl-6-((3-(dimethylamino)propoxy)methyl)-19-hexyl-15-isobutyl-3,16,18-trimethyl-1-oxa-4,7,10,13,16-pentaazacyclononadecane-5,8,11,14,17-pentaone | 30% yield |  |
| (3R,6S,9S,12S,15S,18R,19R)-6,9-Bis(aminomethyl)-12-cycloheptyl-19-hexyl-15-isobutyl-3,16,18-trimethyl-1-oxa-4,7,10,13,16-pentazacyclononadecane-5,8,11,14,17-pentone | 20.9% yield |  |
| (3R,6S,9S,12S,15S,18R,19R)-6-[(2-Aminoethylamino)methyl]-9-(aminomethyl)-12-cycloheptyl-19-hexyl-15-isobutyl-3,16,18-trimethyl-1-oxa-4,7,10,13,16-pentazacyclononadecane-5,8,11,14,17-pentone | 9.6% yield |  |
| (6S,9S,12S,15S,18R,19R)-9-(Aminomethyl)-12-cycloheptyl-19-hexyl-6-((S)-1-hydroxyethyl)-15-isobutyl-16,18-dimethyl-1-oxa-4,7,10,13,16-pentaazacyclononadecane-2,5,8,11,14,17-hexaone | 10% yield |  |
| (6S,9S,12S,15S,18R,19R)-9-(Aminomethyl)-19-decyl-12-(4,4-difluorocyclohexyl)-6-((S)-1-hydroxyethyl)-15-isobutyl-16,18-dimethyl-1-oxa-4,7,10,13,16-pentaazacyclononadecane-2,5,8,11,14,17-hexaone | (20%) | cyclisation yield: 78% crude yield; crude yield (whole synthesis): 95% |
| (6S,9S,12S,15S,18R,19R)-9-(Aminomethyl)-6-((3-aminopropoxy)methyl)-12-cyclohexyl-19-hexyl-15-isobutyl-16,18-dimethyl-1-oxa-4,7,10,13,16-pentaazacyclononadecane-2,5,8,11,14,17-hexaone | 20% yield | isolated yield (whole synthesis): 45% yield |
| (3S,6S,9S,12S,15S,18R,19R)-9-(aminomethyl)-12-((R)-sec-butyl)-19-decyl-6-((S)-1-hydroxyethyl)-15-isobutyl-3,16,18-trimethyl-1-oxa-4,7,10,13,16-pentaazacyclononadecane-2,5,8,11,14,17-hexaone | 34% yield |  |
| (6S,9S,12S,15S,18R,19R)-9-(Aminomethyl)-12-cyclohexyl-6-((S)-1-hydroxyethyl)-15-isobutyl-16,18-dimethyl-19-(7-methyloctyl)-1-oxa-4,7,10,13,16-pentaazacyclononadecane-2,5,8,11,14,17-hexaone |  | cyclisation yield: 40% yield |
| (3R,6S,9S,12S,15S,18R,19R)-6-((3-Amino-2-hydroxypropoxy)methyl)-9-(aminomethyl)-12-cyclohexyl-19-hexyl-15-isobutyl-3,16,18-trimethyl-1-oxa-4,7,10,13,16-pentaazacyclononadecane-5,8,11,14,17-pentaone | 10.3% yield |  |
| (6S,9S,12S,15S,18R,19R)-18-([1,1′-Biphenyl]-4-ylmethyl)-9-(aminomethyl)-12-cyclohexyl-19-hexyl-6-((S)-1-hydroxyethyl)-15-isobutyl-16-methyl-1-oxa-4,7,10,13,16-pentaazacyclononadecane-2,5,8,11,14,17-hexaone | 38% yield |  |
| (3R,6S,9S,12S,15S,18R,19R)-9-(Aminomethyl)-12-cycloheptyl-19-hexyl-6-(((2-hydroxyethyl)amino)methyl)-15-isobutyl-3,16,18-trimethyl-1-oxa-4,7,10,13,16-pentaazacyclononadecane-5,8,11,14,17-pentaone | 25.2% yield |  |
| (3R,6S,9S,12S,15S,18R,19R)-9-(Aminomethyl)-12-cyclohexyl-6-(((S)-2,3-dihydroxypropoxy)methyl)-19-hexyl-15-isobutyl-3,16,18-trimethyl-1-oxa-4,7,10,13,16-pentaazacyclononadecane-5,8,11,14,17-pentaone |  | step yield (run 1): 83% yield; step yield (run 2): 6% yield |
| (6S,9S,12S,15S,18R,19R)-12-((R)-sec-butyl)-19-hexyl-6-((S)-1-hydroxyethyl)-9-(hydroxymethyl)-15-isobutyl-16-methyl-18-(3-(p-tolyl)propyl)-1-oxa-4,7,10,13,16-pentaazacyclononadecane-2,5,8,11,14,17-hexaone | (26%) |  |
| (3R,6S,9S,12S,15S,18R,19R)-6-((4-Aminobutoxy)methyl)-9-(aminomethyl)-12-cyclohexyl-19-hexyl-15-isobutyl-3,16,18-trimethyl-1-oxa-4,7,10,13,16-pentaazacyclononadecane-5,8,11,14,17-pentaone |  | cyclisation yield: 95% yield |
| (6S,9S,12S,15S,18R,19R)-9-(aminomethyl)-12-((R)-sec-butyl)-19-decyl-6-((S)-1-hydroxyethyl)-15-isobutyl-16,18-dimethyl-1-oxa-4,7,10,13,16-pentaazacyclononadecane-2,5,8,11,14,17-hexaone | 13% yield | cyclisation yield: 35% yield; crude yield (whole synthesis, over two steps): 37% yield over two steps |
| Benzyl (((3R,6S,9S,12S,15S,17aR,23aR,Z)-6-((S)-1-(benzyloxy)ethyl)-12-cyclohexyl-3,16-dimethyl-5,8,11,14,17-pentaoxo-15-propyl-2,3,4,5,6,7,8,9,10,11,12,13,14,15,16,17,17a,18,19,22,23,23a-docosahydrocycloocta[r][1l]oxa[4,7,10,13,16]pentaazacyclononadecin-9-yl)methyl)carbamate |  | cyclisation yield: 81% yield |
